In US20050148254A1, “Light-activated biocidal polyelectrolytes” (priority 2003, published 2005):

Tested on: Bacillus anthracis spores
Format: cell-based, Bacillus anthracis (Sterne)

In the case of `CCCCCCCCCCCCCCCC[n+]1ccccc1` [cetylpyridinium chloride], the “inhibition of spore growth (kill)” value is reported as 98.6%.
